# Assay results: PubChem BioAssay (NCATS)
# Inconclusive results, whose numbers are uncertain, are shown with a selection of clear calls. Potencies beside an inconclusive call are fits to weak or partial responses and may not hold up. Activity calls are given as the source filed them. Unless noted, calls follow the shape of the full dose curve.
# Experiments:
# [1] = Confirmatory qHTS for activators (rescue) of SARS-CoV-2 Cytopathic Effect (CPE) (AID 1508606); also: nearly all actives have a fitted effect of over 70% in size
# [2] = Cytotoxicity counterscreen for inhibitors of SARS-CoV-2 cell entry (AID 1645845); conditions: activity change, negative = cytotoxicity: at 57.1 µM (top of the series) unless noted; also: nearly all actives have a fitted effect of over 50% in size
# In short: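 After a 15 min room-temperature ATPLite 1step step, luminescence reflected ATP remaining in HEK293-ACE2 cells exposed to compound for 1 h plus 48 h at 37 C, with percent activity set by cell and no-cell controls.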
# [3] = Primary qHTS to identify inhibitors of SARS-CoV-2 cell entry (AID 1645846); conditions: activity change, negative = inhibition: at 57.1 µM (top of the series); also: nearly all actives have a fitted effect of over 45% in size
# In short: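 Luminescence readout (Bright-Glo luciferase) 48 h after pseudoparticle addition. HEK293-ACE2 cells, 1500/well; compound pre-incubation 1 h; Normalized to spike PP and bald PP.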
# [4] = target: Mitogen-activated protein kinase 10 (Mus musculus) (UniProt Q61831); experiment: JNK3 AlphaScreen Assay (AID 530; active = well fitted curve in either direction with a large enough effect, not every such curve was filed as active; inconclusive = small, poorly fitted or top-dose-only effect, or another doubt;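 also: kinase came from lysate of stimulated human HepG2 cells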); conditions: JNK3 lysate, c-Jun phosphorylation; activity change, negative = inhibition: at 57.1 µM (top of the series)
# In short: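 Phosphorylation of biotinylated GST-cJun(1-79) at Ser73 is measured by AlphaScreen proximity luminescence. Enzyme is JNK3 in HepG2 lysates activated with interleukin-1beta and tumor necrosis factor alpha; ATP is 10 uM final.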
# [5] = target: 3',5'-cyclic-AMP phosphodiesterase 4B (Homo sapiens) (UniProt Q07343); experiment: qHTS Assay for Inhibitors of PDE-IV (AID 607; active = well fitted activation curve with a large enough effect in the main read-out, with a control signal flat, not every such curve was filed as active; inconclusive = small, poorly fitted or top-dose-only effect, or effect the other way, or a change in a side signal); conditions: HEK293 ACTOne CNG channel cells, membrane potential fluorescence
# In short: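 ACTOne HEK293 cells carry a modified cAMP-gated CNG channel and express endogenous PDE4; plated 1000 cells/well, compounds up to 22.9 uM final. Membrane-potential dye fluorescence (ex 535/em 590) was read; parental cells received 10 uM forskolin + 100 uM RO 20-1724.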
# [6] = Counterscreen qHTS for small molecule stabilizers of the endoplasmic reticulum resident proteome: GLuc-NoTag assay (AID 1508627; active = well fitted curve in the direction sought with a large enough effect; inconclusive = small, poorly fitted or top-dose-only effect, or another doubt; inactive = no such curve, though single readings can be large; an effect the other way counts as inactive or inconclusive)
# In short: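 Secreted GLuc lacking the SERCaMP modification is measured in SH-SY5Y cells exposed to compound for 19 h and then to thapsigargin (100 nM, 4 h) to deplete ER calcium; hits retested at 11 concentrations, up to 76.6 uM.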
# [7] = Confirmatory qHTS for small molecule stabilizers of the endoplasmic reticulum resident proteome: Secreted ER Calcium Modulated Protein (SERCaMP) assay (AID 1508628; active = well fitted curve in the direction sought with a large enough effect; inconclusive = small, poorly fitted or top-dose-only effect, or another doubt; inactive = no such curve, though single readings can be large; an effect the other way counts as inactive or inconclusive; also: nearly all actives have a fitted effect of over 40% in size)
# In short: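 Reporter secretion upon ER calcium depletion (100 nM thapsigargin, 4 h, 37C) is measured as medium luminescence with coelenterazine, after 16 h compound pretreatment of SH-SY5Y-GLuc-SERCaMP cells; primary at three concentrations up to 38.3 uM, follow-up at 11 (up to 76.6 uM).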
# [8] = Cell Viability qHTS for small molecule stabilizers of the endoplasmic reticulum resident proteome (AID 1508629; active = well fitted curve in the direction sought with a large enough effect; inconclusive = small, poorly fitted or top-dose-only effect, or another doubt; inactive = no such curve, though single readings can be large; an effect the other way counts as inactive or inconclusive;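 also: compound exposure about 46 h in total before the viability read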); conditions: cell viability counter-screen, 100 nM thapsigargin for final 4 h
# [9] = Primary qHTS for small molecule stabilizers of the endoplasmic reticulum resident proteome: Secreted ER Calcium Modulated Protein (SERCaMP) assay (AID 1508630; active = well fitted curve in the direction sought with a large enough effect; inconclusive = small, poorly fitted or top-dose-only effect, or another doubt; inactive = no such curve, though single readings can be large; an effect the other way counts as inactive or inconclusive); conditions: SH-SY5Y GLuc-SERCaMP secretion, thapsigargin, luminescence; activity change, negative = inhibition: at 38.4 µM (top of the series)
# In short: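 The SH-SY5Y reporter protocol was run at 3 concentrations up to 38.3 uM (primary) or 11 concentrations (follow-up): 16 h compound, 100 nM thapsigargin for 4 h, then extracellular luciferase luminescence.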
# [10] = VSVG counterscreen qHTS to identify inhibitors of SARS-CoV-2 cell entry (AID 1645847); conditions: VSV-G pseudotyped particle entry, luciferase; activity change, negative = inhibition: at 57.2 µM (top of the series); also: nearly all actives have a fitted effect of over 65% in size
# In short: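 HEK293-ACE2 cells (Expi293F stably expressing human ACE2) were pretreated with compound for 1 h at 37 °C, then infected with MLV-based VSV-G pseudotyped particles for 48 h. Luciferase luminescence was normalized to VSV-G PP and bald PP wells.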
# Potency is read from the fitted curve at half-maximal effect.
compound,measurement,setting,value
CC(C)(C)c1ccc(CN2CCN(C(c3ccccc3)c3ccc(Cl)cc3)CC2)cc1 (stereo not drawn),Potency,[1],"inconclusive: 14.1 µM [activator, single point]"
same,Potency,[2],"inconclusive: 39.8 µM [cytotoxic, partial curve, poor fit]"
same,Potency,[3],"inconclusive: 39.8 µM [inhibitor, single point]"
CN1[C@@H]2CC[C@H]1CC(OC(c1ccc(F)cc1)c1ccc(F)cc1)C2 (stereo partly drawn),Potency,[4],"inconclusive: 0.00631 µM [activator, full curve, poor fit]"
same,Potency,[5],"inconclusive: 6 µM [rising, full curve]"
same,Potency,[6],active: 44.7 µM
same,Potency,[7],"inconclusive: 15.8 µM [inhibitor, partial curve]"
same,Potency,[8],active: 25.1 µM
same,Potency,[9],"inconclusive: 2.24 µM [inhibitor, full curve, poor fit]"
CCOC(=O)c1c(CSc2ccccc2)n(C)c2cc(Br)c(O)c(CN(C)C)c12,Potency,[1],active: 11.2 µM
same,Potency,[3],"inconclusive: 31.6 µM [inhibitor, partial curve, poor fit]"
CCC(Oc1ccc(Cl)cc1)C(=O)OC1CC2CCC(C1)N2C (stereo not drawn),Potency,[6],"inconclusive: 7.94 µM [inhibitor, full curve, poor fit]"
same,Potency,[8],"inconclusive: 0.178 µM [rising, full curve, poor fit]"
CCCC[C@@H](C=O)NC(=O)[C@H](CC(C)C)NC(=O)OCc1ccccc1,Potency,[1],active: 0.355 µM
same,Potency,[10],"inconclusive: 21.5 µM [inhibitor, partial curve, poor fit]"
O=C1NC(=O)/C(=C/c2cccc(C(F)(F)F)c2)S1,Potency,[1],"inconclusive: 12.6 µM [activator, single point]"
same,Potency,[2],"inconclusive: 31.6 µM [cytotoxic, partial curve, poor fit]"
same,Potency,[3],"inconclusive: 39.8 µM [inhibitor, single point]"

# 2 entries drawn at random from the list so far:
compound,measurement,setting,value
CN1[C@@H]2CC[C@H]1CC(OC(c1ccc(F)cc1)c1ccc(F)cc1)C2 (stereo partly drawn),Potency,[9],"inconclusive: 2.24 µM [inhibitor, full curve, poor fit]"
CCCC[C@@H](C=O)NC(=O)[C@H](CC(C)C)NC(=O)OCc1ccccc1,Potency,[10],"inconclusive: 21.5 µM [inhibitor, partial curve, poor fit]"
